Measurements reported in doi:10.1101/2025.05.13.653872.

Chains of the proteins cited; added tags and fusions are not shown.
UniProt P48372: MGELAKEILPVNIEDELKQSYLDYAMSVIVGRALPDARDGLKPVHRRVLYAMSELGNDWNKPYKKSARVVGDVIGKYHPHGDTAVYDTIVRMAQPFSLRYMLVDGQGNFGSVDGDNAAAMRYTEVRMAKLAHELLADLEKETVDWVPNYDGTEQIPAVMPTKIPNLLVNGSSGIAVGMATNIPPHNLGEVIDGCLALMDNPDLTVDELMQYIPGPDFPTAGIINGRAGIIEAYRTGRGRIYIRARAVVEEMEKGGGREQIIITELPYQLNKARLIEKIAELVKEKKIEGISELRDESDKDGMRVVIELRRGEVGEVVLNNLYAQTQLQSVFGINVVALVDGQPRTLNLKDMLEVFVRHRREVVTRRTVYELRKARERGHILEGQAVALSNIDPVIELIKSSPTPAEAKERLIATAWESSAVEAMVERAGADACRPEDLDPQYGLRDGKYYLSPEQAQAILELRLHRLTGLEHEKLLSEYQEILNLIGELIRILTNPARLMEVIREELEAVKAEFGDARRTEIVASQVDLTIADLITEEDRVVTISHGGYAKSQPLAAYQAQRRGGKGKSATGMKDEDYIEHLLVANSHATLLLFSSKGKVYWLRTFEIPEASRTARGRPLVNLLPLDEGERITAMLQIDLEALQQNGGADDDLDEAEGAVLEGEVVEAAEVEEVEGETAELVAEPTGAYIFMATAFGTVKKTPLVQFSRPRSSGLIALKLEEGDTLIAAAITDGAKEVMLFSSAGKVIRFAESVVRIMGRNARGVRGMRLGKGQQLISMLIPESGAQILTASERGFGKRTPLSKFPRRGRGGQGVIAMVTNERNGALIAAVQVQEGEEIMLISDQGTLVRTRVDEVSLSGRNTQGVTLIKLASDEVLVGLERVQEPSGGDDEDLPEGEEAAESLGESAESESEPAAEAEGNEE

Legend:
[1] = target: 3xFlag-PcrP overexpressed in P. aeruginosa ΔpcrP (P. aeruginosa PAO1) (UniProt Q9I040); test: affinity purification with mass spectrometry; 3xFlag-PcrP overexpressed in ΔpcrP grown in BMM8 (high Pi, 580 μM) or BMMH8 (low Pi, 50 μM) at 0 or 5 mM Ca2+; lysate (1 mg/ml) on ANTI-FLAG M2 magnetic beads, 2 h at 4°C, washed with 10 mM Tris-HCl pH 7.5; LC-MS/MS; ΔpcrP as negative control
[2] = target: 6xHis-PcrP overexpressed in P. aeruginosa ΔpcrP (P. aeruginosa PAO1) (UniProt Q9I040); test: affinity purification with mass spectrometry; 6xHis-PcrP overexpressed in ΔpcrP grown in BMM8 at 0 or 5 mM Ca2+; lysate (1 mg/ml) on HisPur Ni-NTA resin, 2 h at 4°C, washed with 10 mM Tris-HCl pH 7.5; LC-MS/MS; ΔpcrP as negative control

| Substance | binding [1] | binding [2] |
| --- | --- | --- |
| Acp3 (acyl carrier protein 3, PA3334) (from UniProt Q9HYR1) | binds | binds |
| HsiB2 (PA1657) (from UniProt Q9I368) | binds | binds |
| PA2978 protein phosphatase (from UniProt Q9HZM6) | binds | binds |
| PA3168 DNA gyrase subunit A (from UniProt P48372 1-923) | binds |  |
| PA4241 30S ribosomal protein S13 (from UniProt Q9HWF7 1-118) | binds |  |
| PA4941 protease subunit HflC (from UniProt Q9HUM3) | binds | binds |

These are yes or no findings as the source states them, for the method shown. Binding seen in cells or lysates may run through a third protein. A yes stands for co-enrichment or nearness to the bait. Other partners may have been found.
